This is one part of the list.
Key:
Assay in all cases: log2 fold change, soluble protein after heating vs DMSO (PISA); higher = thermal stabilisation; K562 lysate, 10 uM; active = over 0.2 and 3.5 SD of the protein, either way, in both replicates (recomputed)
vemurafenib = compound: CCCS(=O)(=O)Nc1ccc(F)c(C(=O)c2c[nH]c3ncc(-c4ccc(Cl)cc4)cc23)c1F [vemurafenib]
How it was run: (§1)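 Quantification was by TMTpro 16plex LC-MS/MS with equalised channel sums, applied to the supernatant after 21,000xg for 90 min. Samples were crude K562 extract at 1 mg/mL protein in PBS pH 7.4 with 1 mM MgCl2, treated with 10 μM compound for 30 min, heated for 3 min across 48°C-58°C, pooled and brought to 0.5% NP-40 at 4°C. Values are log-two fold changes in thermal stability relative to solvent controls, from duplicates.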

By UniProt entry, the sequences of proteins in these tests, tags left out. Where a name states a change or a piece, a line headed by the entry shows the natural chain unless it says otherwise.
UniProt Q8NA54: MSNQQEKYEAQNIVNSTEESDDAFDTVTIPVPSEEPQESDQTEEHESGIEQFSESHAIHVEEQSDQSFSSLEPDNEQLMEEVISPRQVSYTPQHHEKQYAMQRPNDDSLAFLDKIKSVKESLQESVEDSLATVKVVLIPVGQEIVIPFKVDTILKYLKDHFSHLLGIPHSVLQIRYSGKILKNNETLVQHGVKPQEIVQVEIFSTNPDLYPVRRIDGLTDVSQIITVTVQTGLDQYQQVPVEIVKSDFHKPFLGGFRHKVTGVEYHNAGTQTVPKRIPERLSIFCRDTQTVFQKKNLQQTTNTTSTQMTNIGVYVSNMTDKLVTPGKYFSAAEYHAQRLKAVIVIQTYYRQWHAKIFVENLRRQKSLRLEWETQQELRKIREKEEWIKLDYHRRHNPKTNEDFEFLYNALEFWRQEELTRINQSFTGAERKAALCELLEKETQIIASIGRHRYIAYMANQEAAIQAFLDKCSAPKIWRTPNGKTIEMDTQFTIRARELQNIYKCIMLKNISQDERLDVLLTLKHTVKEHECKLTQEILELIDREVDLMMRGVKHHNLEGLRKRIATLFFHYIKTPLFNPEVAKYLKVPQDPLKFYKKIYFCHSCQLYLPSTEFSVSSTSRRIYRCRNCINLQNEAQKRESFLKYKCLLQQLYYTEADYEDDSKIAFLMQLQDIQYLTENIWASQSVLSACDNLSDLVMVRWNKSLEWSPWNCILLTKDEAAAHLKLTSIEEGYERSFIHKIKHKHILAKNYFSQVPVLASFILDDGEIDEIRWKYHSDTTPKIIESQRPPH
UniProt Q63ZY3: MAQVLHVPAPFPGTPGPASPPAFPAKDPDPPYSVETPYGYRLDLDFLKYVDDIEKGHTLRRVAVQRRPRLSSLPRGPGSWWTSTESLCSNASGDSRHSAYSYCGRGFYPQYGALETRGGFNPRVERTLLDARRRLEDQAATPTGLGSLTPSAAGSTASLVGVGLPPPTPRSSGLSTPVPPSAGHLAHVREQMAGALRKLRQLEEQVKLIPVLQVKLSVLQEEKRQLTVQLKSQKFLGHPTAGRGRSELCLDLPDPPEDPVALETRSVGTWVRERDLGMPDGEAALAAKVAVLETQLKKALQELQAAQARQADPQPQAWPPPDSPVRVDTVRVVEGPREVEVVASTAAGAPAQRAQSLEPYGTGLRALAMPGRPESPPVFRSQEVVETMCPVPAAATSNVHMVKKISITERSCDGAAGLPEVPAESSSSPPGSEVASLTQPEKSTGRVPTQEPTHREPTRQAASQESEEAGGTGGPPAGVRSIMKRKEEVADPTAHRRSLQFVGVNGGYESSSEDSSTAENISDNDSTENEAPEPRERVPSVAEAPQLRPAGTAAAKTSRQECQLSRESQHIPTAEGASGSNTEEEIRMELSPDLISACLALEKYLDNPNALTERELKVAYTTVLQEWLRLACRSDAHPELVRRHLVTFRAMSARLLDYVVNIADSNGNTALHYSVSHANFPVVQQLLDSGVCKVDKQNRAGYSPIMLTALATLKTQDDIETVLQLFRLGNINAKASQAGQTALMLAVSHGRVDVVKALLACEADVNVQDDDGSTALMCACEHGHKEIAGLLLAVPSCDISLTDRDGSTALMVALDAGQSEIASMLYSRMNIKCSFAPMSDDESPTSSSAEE
UniProt Q96MP8: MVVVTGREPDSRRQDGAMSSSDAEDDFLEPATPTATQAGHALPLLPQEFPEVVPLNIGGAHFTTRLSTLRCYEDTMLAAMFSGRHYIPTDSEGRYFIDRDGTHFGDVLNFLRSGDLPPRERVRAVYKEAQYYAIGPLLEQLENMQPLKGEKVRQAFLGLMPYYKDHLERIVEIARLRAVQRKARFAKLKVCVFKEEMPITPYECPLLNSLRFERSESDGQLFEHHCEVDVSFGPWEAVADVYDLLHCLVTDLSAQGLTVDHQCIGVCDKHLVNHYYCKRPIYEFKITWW
UniProt O95279: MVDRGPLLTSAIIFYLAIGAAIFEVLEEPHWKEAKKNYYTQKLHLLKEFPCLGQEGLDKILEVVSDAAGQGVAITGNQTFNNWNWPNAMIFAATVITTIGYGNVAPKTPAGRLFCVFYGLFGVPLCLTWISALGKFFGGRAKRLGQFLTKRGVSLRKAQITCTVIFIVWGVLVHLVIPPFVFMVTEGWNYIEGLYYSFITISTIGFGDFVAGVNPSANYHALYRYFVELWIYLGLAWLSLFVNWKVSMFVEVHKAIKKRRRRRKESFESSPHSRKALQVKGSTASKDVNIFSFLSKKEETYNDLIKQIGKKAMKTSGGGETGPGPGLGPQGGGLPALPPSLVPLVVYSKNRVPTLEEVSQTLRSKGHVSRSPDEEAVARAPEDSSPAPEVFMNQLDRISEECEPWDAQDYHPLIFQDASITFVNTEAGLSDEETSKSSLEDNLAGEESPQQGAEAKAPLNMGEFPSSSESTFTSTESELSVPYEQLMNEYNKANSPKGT
UniProt Q9NWZ3, whole entry, looked up: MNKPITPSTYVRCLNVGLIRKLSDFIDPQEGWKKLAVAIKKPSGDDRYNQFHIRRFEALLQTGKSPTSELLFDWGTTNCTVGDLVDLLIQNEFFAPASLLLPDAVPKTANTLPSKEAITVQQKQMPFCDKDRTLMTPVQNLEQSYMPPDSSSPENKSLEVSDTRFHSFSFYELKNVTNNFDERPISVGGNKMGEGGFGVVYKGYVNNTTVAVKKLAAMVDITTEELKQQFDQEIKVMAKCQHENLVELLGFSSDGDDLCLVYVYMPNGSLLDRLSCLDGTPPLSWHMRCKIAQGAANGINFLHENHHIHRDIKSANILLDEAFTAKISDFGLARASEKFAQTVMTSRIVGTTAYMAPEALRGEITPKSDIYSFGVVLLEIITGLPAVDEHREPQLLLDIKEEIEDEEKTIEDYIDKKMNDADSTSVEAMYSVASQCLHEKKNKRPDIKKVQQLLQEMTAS
UniProt Q9H079: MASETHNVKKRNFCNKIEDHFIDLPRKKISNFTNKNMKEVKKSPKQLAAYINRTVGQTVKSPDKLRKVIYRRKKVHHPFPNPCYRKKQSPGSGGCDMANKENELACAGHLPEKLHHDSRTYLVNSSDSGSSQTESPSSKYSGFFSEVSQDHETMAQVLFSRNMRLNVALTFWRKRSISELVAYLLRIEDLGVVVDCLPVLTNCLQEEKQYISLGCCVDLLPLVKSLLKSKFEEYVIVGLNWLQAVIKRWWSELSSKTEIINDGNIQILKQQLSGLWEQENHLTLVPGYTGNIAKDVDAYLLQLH

[1] = compound: CCCS(=O)(=O)Nc1ccc(F)c(C(=O)c2c[nH]c3ncc(Cl)cc23)c1F
How it was run: as §1

[2] = compound: CC[C@@H]1C(=O)N(C)c2cnc(Nc3ccc(C(=O)NC4CCN(C)CC4)cc3OC)nc2N1C1CCCC1
How it was run: as §1

volasertib = compound: CC[C@@H]1C(=O)N(C)c2cnc(Nc3ccc(C(=O)N[C@H]4CC[C@H](N5CCN(CC6CC6)CC5)CC4)cc3OC)nc2N1C(C)C [volasertib]
How it was run: as §1

[3] = compound: CCn1c(C(=O)N(C2CC2)C2CC2)cc2c3c(ncn3C)c(Nc3cc(C)n(C)n3)nc21
How it was run: as §1

[4] = compound: CCn1cc(-c2ccnc3[nH]c(-c4cccc(CN(C)C)c4)cc23)c(-c2ccc(NC(=O)N(C)C)cc2)n1
How it was run: as §1

[5] = compound: CN1CCC(CNc2ccc3ncc(-c4cccc(OC(F)(F)F)c4)n3n2)CC1
How it was run: as §1

saracatinib = compound: CN1CCN(CCOc2cc(OC3CCOCC3)c3c(Nc4c(Cl)ccc5c4OCO5)ncnc3c2)CC1 [saracatinib]
How it was run: as §1

alvocidib = compound: CN1CC[C@H](c2c(O)cc(O)c3c(=O)cc(-c4ccccc4Cl)oc23)[C@H](O)C1 [alvocidib]
How it was run: as §1

Tubastatin A = compound: CN1CCc2c(c3ccccc3n2Cc2ccc(C(=O)NO)cc2)C1 [Tubastatin A]
How it was run: as §1

[6] = compound: CNC(=O)C1=CC=CC=C1NC2=NC(=NC=C2Cl)NC3=C(C=C(C=C3)N4CCOCC4)OC
How it was run: as §1

defactinib = compound: CNC(=O)c1ccc(Nc2ncc(C(F)(F)F)c(NCc3nccnc3N(C)S(C)(=O)=O)n2)cc1 [defactinib]
How it was run: as §1

[7] = compound: CNc1nc(-c2ccc3c(N)n[nH]c3c2)cc(N2C[C@@H](C(=O)NC3CCCCC3)CC[C@H]2C)n1
How it was run: as §1

encorafenib = compound: COC(=O)N[C@@H](C)CNc1nccc(-c2cn(C(C)C)nc2-c2cc(Cl)cc(NS(C)(=O)=O)c2F)n1 [encorafenib]
How it was run: as §1

[8] = compound: COC(=O)[C@H](CCSC)NC(=O)C1=C(C=C(C=C1)NC[C@H](CS)N)C2=CC=CC=C2
How it was run: as §1

alisertib = compound: COc1cc(Nc2ncc3c(n2)-c2ccc(Cl)cc2C(c2c(F)cccc2OC)=NC3)ccc1C(=O)O [alisertib]
How it was run: as §1

[9] = compound: COc1cc2nc(-c3cc(F)ccc3O)nc(N[C@@H]3CNC[C@H]3C(C)(C)O)c2cc1OC
How it was run: as §1

gefitinib = compound: COc1cc2ncnc(Nc3ccc(F)c(Cl)c3)c2cc1OCCCN1CCOCC1 [gefitinib]
How it was run: as §1

barasertib = compound: CCN(CCCOc1ccc2c(Nc3cc(CC(=O)Nc4cccc(F)c4)[nH]n3)ncnc2c1)CCOP(=O)(O)O [barasertib]
How it was run: as §1

sotrastaurin = compound: CN1CCN(c2nc(C3=C(c4c[nH]c5ccccc45)C(=O)NC3=O)c3ccccc3n2)CC1 [sotrastaurin]
How it was run: as §1

Measured: log2 fold change

IPO5 (UniProt H0Y3V4)
inactive: vemurafenib -0.002 | [1] -0.035 | [2] 0.006 | volasertib -0.126 | [3] -0.002 | [4] 0.003 | [5] 0.069 | saracatinib 0.061 | alvocidib -0.013 | Tubastatin A -0.078 | [6] -0.049 | defactinib 0.127 | [7] -0.056 | encorafenib 0.053 | [8] -0.183 | alisertib 0.039 | [9] -0.368 | gefitinib 0.18

ITFG2 (UniProt H0YGR0)
inactive: vemurafenib -0.009 | [1] -0.043 | volasertib -0.076 | [3] -0.14 | saracatinib 0.181 | Tubastatin A 0.154 | defactinib 0.152 | [7] 0.071 | [9] 0.029

IQUB (UniProt Q8NA54)
inactive: vemurafenib -0.307 | [1] 0.083 | barasertib 0.064 | volasertib 0.006 | [4] 0.068 | [5] -0.051 | alvocidib 0.028 | defactinib 0.073 | [9] -0.06

KANK2 isoform 2 (UniProt Q63ZY3)
inactive: vemurafenib -0.197 | [1] 0.037 | [2] -0.079 | volasertib 0.027 | [3] -0.02 | [4] 0.016 | [5] -0.17 | saracatinib 0.062 | alvocidib -0.143 | Tubastatin A -0.439 | defactinib 0.022 | [7] 0.307 | encorafenib 0.017 | [8] 0.127 | [9] 0.187

KCTD7 (UniProt Q96MP8)
inactive: vemurafenib 0.083 | [1] 0.39 | [2] 0.042 | volasertib 0.243 | [3] 0.096 | saracatinib -0.165 | sotrastaurin -0.123 | Tubastatin A -0.168 | [6] 0.053 | defactinib -0.391 | [7] 0.136 | encorafenib -0.051 | [8] -0.104 | [9] -0.042

KCNK5 (UniProt O95279)
inactive: vemurafenib -0.095 | [1] 0.134 | barasertib 0.023 | volasertib -0.038 | [4] 0.272 | [5] 0.05 | saracatinib 0.102 | sotrastaurin -0.055 | alvocidib 0.171 | [6] -0.074 | defactinib 0.251 | [7] 0.199 | alisertib 0.119 | [9] -0.211 | gefitinib -0.403

IRAK4 (UniProt Q9NWZ3)
inactive: vemurafenib -0.028 | [1] -0.005 | barasertib 0.107 | [2] -0.085 | volasertib -0.022 | [3] 0.063 | [4] 0.001 | [5] 0.19 | saracatinib 0.045 | sotrastaurin -0.022 | alvocidib 0.01 | Tubastatin A -0.083 | defactinib 0.145 | [7] -0.018 | encorafenib -0.032 | [8] 0.032 | alisertib 0.006 | [9] 0.111 | gefitinib 0.045
active: [6] 0.261

KATNBL1 (UniProt Q9H079)
inactive: vemurafenib -0.011 | [1] -0.03 | [2] 0.284 | volasertib 0.039 | [4] -0.105 | [5] 0.055 | saracatinib -0.068 | sotrastaurin -0.004 | alvocidib -0.106 | [6] -0.033 | defactinib -0.014 | [7] 0.037 | encorafenib -0.137 | [8] -0.188 | alisertib -0.161 | [9] 0.025 | gefitinib -0.254

Reprinted at random: two records from the list, in no set order.
IQUB (UniProt Q8NA54)
inactive: vemurafenib -0.307 | [1] 0.083 | barasertib 0.064 | volasertib 0.006 | [4] 0.068 | [5] -0.051 | alvocidib 0.028 | defactinib 0.073 | [9] -0.06

IRAK4 (UniProt Q9NWZ3)
inactive: vemurafenib -0.028 | [1] -0.005 | barasertib 0.107 | [2] -0.085 | volasertib -0.022 | [3] 0.063 | [4] 0.001 | [5] 0.19 | saracatinib 0.045 | sotrastaurin -0.022 | alvocidib 0.01 | Tubastatin A -0.083 | defactinib 0.145 | [7] -0.018 | encorafenib -0.032 | [8] 0.032 | alisertib 0.006 | [9] 0.111 | gefitinib 0.045
active: [6] 0.261

Reference: the supplement of paper PMC10849652
